Values from PubChem BioAssay AID1224827 (NIAID, 2016)
Screen: 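Confirm genes whose knock-down changes LPS-driven TNF promoter activity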 (follow-up of hits). System: RAW264.7 G9 mouse macrophage reporter clone. Reagents: single siRNA against mouse genes, 100 nM siRNA. Duration: siRNA for 2 days, then LPS about 16 h. Challenge: bacterial lipopolysaccharide (LPS), 10 ng/ml, cells fixed after overnight (about 16 h) stimulation. Measured: 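Imaged nuclear TNF reporter intensity, background removed, scaled per plate and to non-targeting control wells, as z-scores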. Reading the numbers: TNF reporter z-score, mean: higher = stronger Tnf promoter reporter signal. Call rule: 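Active siRNA: replicate-mean z-score of 2 or more, or -2 or less; no calls for control wells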.
This is a random part of about 3,800 reagents tested. About 2,200 of them (57%) were called active. 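Active means a strong reporter change in either direction; calls are per siRNA, not per gene; qiagen siRNAs gave weaker effects.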 A number with no mark means an inactive call. The numbers tell different reagents against one gene apart. Not all columns of the deposit are shown. No sequences are given here.

| gene | reagent no. | TNF reporter z-score, mean |
| --- | --- | --- |
| Svil | 1 | -1.2 |
| Svil | 2 | -1.35 |
| Svil | 3 | -1.9 |
| Svil | 4 | 1.84 |
| Svil | 5 | -2.22 (active) |
| Svil | 6 | -2.9 (active) |
| Eif3e | 1 | 2.05 (active) |
| Eif3e | 2 | 2.51 (active) |
| Eif3e | 3 | -1.85 |
| Eif3e | 4 | -0.0841 |
| Eif3e | 5 | -0.717 |
| Eif3e | 6 | -2.91 (active) |
| Tnfrsf12a | 1 | -3.56 (active) |
| Tnfrsf12a | 2 | -4.37 (active) |
| Tnfrsf12a | 3 | -4.66 (active) |
| Tnfrsf12a | 4 | -1.37 |
| Tnfrsf12a | 5 | -2.83 (active) |
| Tnfrsf12a | 6 | -2.99 (active) |
| Bambi | 1 | -4.62 (active) |
| Bambi | 2 | -4.87 (active) |
| Bambi | 3 | -5.45 (active) |
| Bambi | 4 | 1.78 |
| Bambi | 5 | 0.24 |
| Bambi | 6 | -3.59 (active) |
| Slc10a4 | 1 | -2.2 (active) |
| Slc10a4 | 2 | -2.84 (active) |
| Slc10a4 | 3 | -3.9 (active) |
| Slc10a4 | 4 | 2.69 (active) |
| Slc10a4 | 5 | 1.15 |
| Slc10a4 | 6 | -0.235 |
| Onecut2 | 1 | 1.54 |
| Onecut2 | 2 | -2.82 (active) |
| Onecut2 | 3 | -3.68 (active) |
| Onecut2 | 4 | 0.776 |
| Onecut2 | 5 | 0.586 |
| Onecut2 | 6 | -3.24 (active) |
| Syngr1 | 1 | -2.74 (active) |
| Syngr1 | 2 | -3.6 (active) |
| Syngr1 | 3 | -3.68 (active) |
| Syngr1 | 4 | 4.82 (active) |
| Syngr1 | 5 | 0.284 |
| Syngr1 | 6 | -0.905 |
| Hnrnpd | 1 | -0.615 |
| Hnrnpd | 2 | -3.72 (active) |
| Hnrnpd | 3 | -4.42 (active) |
| Hnrnpd | 4 | 1.81 |
| Hnrnpd | 5 | 1.25 |
| Hnrnpd | 6 | -1.05 |
| Psmb5 | 1 | -2.1 (active) |
| Psmb5 | 2 | -2.16 (active) |
| Psmb5 | 3 | -2.63 (active) |
| Psmb5 | 4 | 6.6 (active) |
| Psmb5 | 5 | -1.7 |
| Psmb5 | 6 | -2.75 (active) |
| Atp1b3 | 1 | -1.07 |
| Atp1b3 | 2 | -3.36 (active) |
| Atp1b3 | 3 | -5.14 (active) |
| Atp1b3 | 4 | 2.67 (active) |
| Atp1b3 | 5 | 1.42 |
| Atp1b3 | 6 | 0.896 |

Laid out differently: entries from further up.
{"gene": "Slc10a4", "reagent no.": 3, "TNF reporter z-score, mean": "-3.9 (active)"}
{"gene": "Slc10a4", "reagent no.": 4, "TNF reporter z-score, mean": "2.69 (active)"}
{"gene": "Slc10a4", "reagent no.": 5, "TNF reporter z-score, mean": 1.15}
{"gene": "Slc10a4", "reagent no.": 6, "TNF reporter z-score, mean": -0.235}
{"gene": "Onecut2", "reagent no.": 1, "TNF reporter z-score, mean": 1.54}
